{"source": "PubChem BioAssay AID720505, Drosophila RNAi Screening Center | 2013", "purpose": "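Genes needed for store-operated calcium entry in fly cells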 (primary screen)", "cell system": "Drosophila S2R+ cells", "reagents": "long dsRNA against Drosophila genes", "challenge": "thapsigargin (2 µM) in calcium-free buffer to empty internal stores, then 2 mM calcium added back", "detection": "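Fluo-4 signal in 384-well plates read on a FLIPR after thapsigargin (2 µM, calcium-free) store depletion and 2 mM calcium add-back; unnormalised mean endpoint per well; screen run twice, selected wells retested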", "direction": "calcium signal and retest calcium signal: higher = more calcium entry after store depletion", "rule for the call": "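Knock-downs counted as hits when calcium entry dropped relative to STIM1 positive and Rho1 negative controls present on each plate; roughly 1500 genes called, with reductions of differing size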", "calls": "active = called as lowering calcium entry; inactive = not called", "note": "The deposit covers about 20,000 reagents; this is an unselected part of those with a known target gene and a result. In the full data, about 2,100 (10%) were called active. 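Raw plate signals without normalisation; calls rest on control-based scores that were not deposited; replicate 2 separates called from uncalled poorly.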 Entries without a mark were called inactive. The numbers tell different reagents against one gene apart. A plus sign joins genes that one reagent is predicted to hit. The record does not give: the amount of reagent, the time to read-out."}
The first 3 entries, ahead of the listing:
{"predicted target": "HDAC3", "reagent": 1, "calcium signal, replicate 1": 91.9, "calcium signal, replicate 2": 187}
{"predicted target": "ppk28", "reagent": 1, "calcium signal, replicate 1": 103, "calcium signal, replicate 2": 107}
{"predicted target": "CG7255", "reagent": 1, "calcium signal, replicate 1": 107, "calcium signal, replicate 2": 75.5}

The list itself, repeating the preview:
{"predicted target": "HDAC3", "reagent": 1, "calcium signal, replicate 1": 91.9, "calcium signal, replicate 2": 187}
{"predicted target": "ppk28", "reagent": 1, "calcium signal, replicate 1": 103, "calcium signal, replicate 2": 107}
{"predicted target": "CG7255", "reagent": 1, "calcium signal, replicate 1": 107, "calcium signal, replicate 2": 75.5}
{"predicted target": "CG3746", "reagent": 1, "calcium signal, replicate 1": 79, "calcium signal, replicate 2": 140}
{"predicted target": "dtn", "reagent": 1, "calcium signal, replicate 1": 282, "calcium signal, replicate 2": 78.3}
{"predicted target": "Lcch3", "reagent": 1, "calcium signal, replicate 1": 91.4, "calcium signal, replicate 2": 235}
{"predicted target": "CG13511", "reagent": 1, "calcium signal, replicate 1": 97.1, "calcium signal, replicate 2": 177}
{"predicted target": "CG17111", "reagent": 1, "calcium signal, replicate 1": 178, "calcium signal, replicate 2": 145}
{"predicted target": "CG16972", "reagent": 1, "calcium signal, replicate 1": "62.4 (active)", "calcium signal, replicate 2": 137}
{"predicted target": "mRpL50", "reagent": 1, "calcium signal, replicate 1": 78.8, "calcium signal, replicate 2": 115, "retest calcium signal, replicate 1": 75.5, "retest calcium signal, replicate 2": 86.1}
{"predicted target": "CG10911", "reagent": 1, "calcium signal, replicate 1": 177, "calcium signal, replicate 2": 140}
{"predicted target": "speck", "reagent": 1, "calcium signal, replicate 1": "70 (active)", "calcium signal, replicate 2": 172}
{"predicted target": "Acp33A + CG15841 (retired record)", "reagent": 1, "calcium signal, replicate 1": 157, "calcium signal, replicate 2": 156}
{"predicted target": "Fatp (retired record)", "reagent": 1, "calcium signal, replicate 1": 73.7, "calcium signal, replicate 2": 96.3}
{"predicted target": "foi", "reagent": 1, "calcium signal, replicate 1": 102, "calcium signal, replicate 2": 63.2}
{"predicted target": "Hr78", "reagent": 1, "calcium signal, replicate 1": 102, "calcium signal, replicate 2": 81.4}
{"predicted target": "Osi10b", "reagent": 1, "calcium signal, replicate 1": 112, "calcium signal, replicate 2": 88.1}
{"predicted target": "Coq2", "reagent": 1, "calcium signal, replicate 1": 128, "calcium signal, replicate 2": 120}
{"predicted target": "Coq2", "reagent": 2, "calcium signal, replicate 1": 144, "calcium signal, replicate 2": 133}
{"predicted target": "Zip48C", "reagent": 1, "calcium signal, replicate 1": 192, "calcium signal, replicate 2": 138}
{"predicted target": "Argl + CG9515", "reagent": 1, "calcium signal, replicate 1": 95, "calcium signal, replicate 2": 105}
{"predicted target": "Argl + CG9515", "reagent": 2, "calcium signal, replicate 1": 142, "calcium signal, replicate 2": 176}
{"predicted target": "Pat1", "reagent": 1, "calcium signal, replicate 1": 109, "calcium signal, replicate 2": 121}
{"predicted target": "Pask", "reagent": 1, "calcium signal, replicate 1": 109, "calcium signal, replicate 2": 107}
{"predicted target": "Vps15", "reagent": 1, "calcium signal, replicate 1": 146, "calcium signal, replicate 2": 123}
{"predicted target": "l(1)G0020", "reagent": 1, "calcium signal, replicate 1": 248, "calcium signal, replicate 2": 80}
{"predicted target": "sprt", "reagent": 1, "calcium signal, replicate 1": 134, "calcium signal, replicate 2": 113}
{"predicted target": "CG17929", "reagent": 1, "calcium signal, replicate 1": 85.5, "calcium signal, replicate 2": 220}
{"predicted target": "CR43999 (retired record)", "reagent": 1, "calcium signal, replicate 1": 126, "calcium signal, replicate 2": 131}
{"predicted target": "CG7910", "reagent": 1, "calcium signal, replicate 1": 110, "calcium signal, replicate 2": 190}
{"predicted target": "CG11584", "reagent": 1, "calcium signal, replicate 1": 112, "calcium signal, replicate 2": 121}
{"predicted target": "CG17917", "reagent": 1, "calcium signal, replicate 1": 115, "calcium signal, replicate 2": 138}
{"predicted target": "CR33315", "reagent": 1, "calcium signal, replicate 1": 94.8, "calcium signal, replicate 2": 138}
{"predicted target": "lky", "reagent": 1, "calcium signal, replicate 1": "73.8 (active)", "calcium signal, replicate 2": 149}
{"predicted target": "mal", "reagent": 1, "calcium signal, replicate 1": 142, "calcium signal, replicate 2": 149}
